According to patent US20060233870A1, “Compositions and methods for drug delivery” (Noven Pharmaceuticals, Inc., priority 1999, published 2006):

Details: increasing amount of carboxy functional acrylic (DT 87-2852 or DT 87-2296) versus non-functional DT 87-2097; FIG. 4

CN1[C@@H]2C[C@@H](OC(=O)[C@H](CO)c3ccccc3)C[C@H]1[C@@H]1O[C@@H]12 [scopolamine]
scopolamine flux: decreases the flux of the scopolamine
